From EP0450461B1 (The Administrators of The Tulane Educational Fund, priority 1990, dated 1991)
Square brackets hold non-standard residues; d marks the D form. dPhe(4-Cl) = N[C@H](Cc1ccc(Cl)cc1)C(=O)O; d2Nal = N[C@H](Cc1ccc2ccccc2c1)C(=O)O; d3Pal = N[C@H](Cc1cccnc1)C(=O)O

Test: general procedure: Boc solid-phase peptide synthesis; benzhydrylamine HCl resin, about 1 meq NH2/g (Advanced ChemTech)
Settings: whole synthesis, TFA salt

Row | Substance | final HPLC purity (analytical HPLC, solvent system i, linear gradient) | crude mass (scale 0.5 g resin, about 0.5 mmole)
1 | Ac-D-Nal(2)-D-Phe(4Cl)-D-Trp-Ser-Arg-D-Lys(A₂pr)-Leu-Arg-Pro-D-Ala-NH₂ | >95% | 
2 | Ac-[d2Nal][dPhe(4-Cl)][d3Pal]SR[dK]LRP[dA]-NH2 |  | 540 mg
